PubChem BioAssay AID2685 (National Center for Advancing Translational Sciences (NCATS), 2010)
The other results are listed elsewhere or left out. The main result of the screen is listed elsewhere. These columns were measured beside it and carry no call. Compounds called inactive in the main read-out are mostly missing here. Words in brackets tell the shape of the fitted curve; partial curves, single points and poor fits give uncertain potencies.

Experiment: qHTS Assay for Lipid Storage Modulators in Drosophila S3 Cells;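 as to cell number change: cells counted by Cell Tracker Red CMTPX staining in the red channel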
Details: BODIPY lipid droplet fluorescence, 18-24 h; for cell number change: measured here: cell count max response, cells fed with added oleic acid
Outline: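 Laser-scanning cytometry quantifies lipid droplet accumulation (500–530 nm total intensity; droplet/cell object ratio) in oleic acid-fed (400 uM added) Drosophila S3 cells treated with a concentration series. 20 uM Triacsin C defined 100% inhibition.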

[1] = measured here: cell number channel AC50, cells fed with added oleic acid
[2] = measured here: lipid fluorescence (Fed channel) AC50, cells fed with added oleic acid

SMILES | cell number change [%] | AC50 [1] | AC50 [2]
CC(O)CNc1ccc(-c2nn(C)c(=O)c3ccccc23)cc1[N+](=O)[O-] (stereo not given) | 6.62 | 4.61 µM [falling, single point] | 
COC(=O)c1ccc(OC(=O)c2cccnc2SC)cc1 | 6.3 |  | 
Cc1cc(C)c(NC(=O)CNC(=O)c2cc(C3CC3)nn2-c2ccccc2)c(C)c1 | -5.35 |  | 6.51 µM [falling, single point]
Cc1ccc(C(=O)N2CCN(c3ccc(NC(=O)Cc4ccccc4)cc3)CC2)cc1 | 50.1 | 29.1 µM [rising, single point] | 29.1 µM [rising, single point]
Cc1cc(C)nc(NC(=O)c2c(-c3ccccc3Cl)noc2C)c1 | 18.6 |  | 0.0731 µM [rising, full curve, poor fit]
COc1cc(/C=C/C(=O)OCC(=O)NC2CCS(=O)(=O)C2)ccc1O (stereo not given) | 3.81 |  | 
Cc1ccccc1OC1CCN(C(=O)c2cc(COc3ccccc3)on2)CC1 | -25.5 |  | 29.1 µM [falling, single point]
CCCCn1c(N)c(N(CC(C)C)C(=O)CSc2nnc(-c3ccc(Cl)cc3)o2)c(=O)[nH]c1=O |  |  | 29.1 µM [rising, single point]
O=C(Cn1c(O)c(/C=C2\C=Nc3ccccc32)sc1=O)N1CCOCC1 | 17.2 | 0.0731 µM [falling, full curve, poor fit] | 11.6 µM [rising, partial curve, poor fit]
Cc1csc(SCC(=O)Nc2c(C)n(C)n(-c3ccccc3)c2=O)n1 | 4.88 |  | 9.2 µM [rising, partial curve, poor fit]
CN(CC(=O)Nc1ccc(F)cc1)C(=O)COC(=O)CSc1ccc(F)cc1 | -19 |  | 2.31 µM [falling, full curve, poor fit]
Cc1nn(-c2nnc(NC3CCCCC3)nn2)c(C)c1Br | -74.7 | 16.4 µM [falling, partial curve] | 18.4 µM [falling, partial curve]
COc1ccc(CNS(=O)(=O)c2ccc3c(c2)N(C)CCO3)cc1 |  |  | 4.11 µM [rising, single point]
CS(=O)(=O)Nc1cccc(C2=NN(S(C)(=O)=O)C(c3ccc4c(c3)OCO4)C2)c1 (stereo not given) | 27 |  | 4.11 µM [rising, partial curve]
COCCNc1nnc(SCC(=O)NC(=O)c2ccc(Cl)cc2)s1 |  |  | 0.58 µM [rising, full curve, poor fit]
COc1ccc(OC)c(NC(=O)c2sc3ncnc(N4CCN(c5ccccn5)CC4)c3c2C)c1 | -7.26 |  | 
CCOC(=O)c1[nH]c(C)c(C(=O)NC(C)CC)c1C (stereo not given) | 10.1 |  | 
Cc1ccc(NC(=O)C(C)Sc2n[nH]c(CNc3ccccc3)n2)cc1 (stereo not given) | 11.8 |  | 
Cc1cc(C)n2nc(CC(=O)NNC(=O)c3ccc(N(C)C)cc3)nc2n1 | 9.73 |  | 29.1 µM [falling, single point]
CCOC(=O)C1C(=O)NC(N2CCN(Cc3ccccc3)CC2)=NC1c1ccco1 (stereo not given) |  | 2.59 µM [rising, partial curve, poor fit] | 

SMILES | cell number change [%] | AC50 [1] | AC50 [2]
O=C(NCCC1=CCCCC1)c1cc(COc2ccc(F)cc2Cl)on1 | -7.08 | 6.51 µM [rising, single point] | 
COc1cc(S(=O)(=O)Nc2ccccc2C)ccc1NC(=O)c1ccncc1 |  | 0.82 µM [rising, single point] | 4.61 µM [rising, single point]
O=C(Nc1ccc(F)cc1F)c1ccc2ncsc2c1 | 36.6 | 0.164 µM [rising, full curve, poor fit] | 
Clc1ccccc1CSc1nnc([C@@H]2CCCN2)o1 | 26.2 |  | 0.13 µM [rising, full curve, poor fit]
CC(=O)c1cccc(NC(=O)C2C(c3ccccc3)C2(Cl)Cl)c1 (stereo not given) | 38.4 |  | 
COc1ccc(-n2c(=O)/c(=C\c3cccs3)s/c2=C(/C#N)C(=O)NCCN2CCOCC2)cc1 | 45.3 |  | 
CCOC(=O)c1nnn(-c2nonc2N)c1-c1ccccc1 | -11.1 | 6.51 µM [rising, single point] | 
CCCC(c1nnnn1C1CCCC1)N1CCN(c2ccccc2F)CC1 (stereo not given) | 1.36 |  | 
CCOc1ccc(C2NC(=O)CCC2[N+](=O)[O-])cc1 (stereo not given) | 3.52 |  | 14.6 µM [rising, single point]
CC(=O)Nc1ccc(S(=O)(=O)N[C@@H](C)C(=O)OCc2ccc(Cl)cc2)cc1 | -24.1 |  | 29.1 µM [falling, single point]
S=C(NCc1ccco1)NCC1CCCO1 (stereo not given) | -15.1 |  | 4.61 µM [falling, single point]
O=C(CSCc1ccc(Br)cc1)NCc1ccccn1 | -23.3 |  | 4.11 µM [rising, single point]
COc1ccc(CCNC(=O)c2cnc3ccccn3c2=O)cc1 | 15.9 |  | 1.46 µM [rising, partial curve]
CCOCCOC(=O)C1=C(C)NC(=O)NC1c1cc2c(cc1Br)OCO2 (stereo not given) | 8.2 |  | 29.1 µM [rising, single point]
Nc1c(C(=O)NCC2CCCO2)sc2nc3c(c(-c4ccco4)c12)CC/C3=C\c1ccco1 (stereo not given) |  |  | 9.2 µM [falling, partial curve]
Cc1nc(SC2C=CS(=O)(=O)C2)n[nH]1 (stereo not given) | 4.33 |  | 0.0058 µM [rising, full curve, poor fit]
COc1cc(/C=N/NC(=O)c2ccncc2)ccc1OC(=O)c1cc(OC)c(OC)c(OC)c1 | 22.6 |  | 29.1 µM [rising, single point]
Cc1ccc(NC(=O)Cc2n[nH]c(=O)c3ccccc23)cc1S(=O)(=O)N1CCCCCC1 | -7.93 |  | 0.0517 µM [rising, full curve, poor fit]
COC(=O)c1cc2ccsc2n1Cc1cccc(F)c1 | 60.1 | 29.1 µM [rising, single point] | 
CC(=O)NC1C(=O)N=C(SC(C)C(=O)Nc2cccc(Cl)c2)NC1=O (stereo not given) | -10.2 | 0.164 µM [falling, full curve, poor fit] | 

Some entries already given, limited to AC50 [1] and AC50 [2].
SMILES,AC50 [1],AC50 [2]
CCOC(=O)c1nnn(-c2nonc2N)c1-c1ccccc1,"6.51 µM [rising, single point]",
CCOc1ccc(C2NC(=O)CCC2[N+](=O)[O-])cc1 (stereo not given),,"14.6 µM [rising, single point]"
